The target of assay [1] is human aldosterone synthase (CYP11B2) (Homo sapiens, UniProt P19099). The assay is described as follows: Assay of human aldosterone synthase (CYP11B2) inhibition. Conditions: G402 cell line stably overexpressing human CYP11B2; substrate 11-deoxycorticosterone (11-DOC); 24 h incubation; aldosterone in supernatant by HTRF. The source says:
Experimental reagents and instruments: Aldosterone kit (Cisbio, Cat#64ALDPEG); Envision plate reader (PerkinElmer).
Experimental principle and method: In humans, aldosterone synthase (CYP11B2) catalyses the conversion of 11-deoxycorticosterone (11-DOC) to aldosterone through a series of metabolic processes. In this experiment, a G402 cell line stably overexpressing-Human CYP11B2 was established in vitro (according to Valentin-Goyco J, et al. Selectivity of osilodrostat as an inhibitor of human steroidogenic cytochromes P450. J Steroid Biochem Mol Biol. 2023, 231:106316). The cells were incubated with 11-deoxycorticosterone (11-DOC) as the substrate, the test compound was added simultaneously. After co-incubation, the supernatant was collected, and aldosterone levels in the supernatant were then measured by HTRF assay. The inhibitory effect of the compound on aldosterone synthase (CYP11B2) was calculated based on aldosterone concentration.
(§1) Experimental steps: 11-Deoxycorticosterone (11-DOC) was added to the wells of a plate pre-seeded with the cells (10,000 cells/well) 24h prior to assay initiation. Then, the compound diluted to different concentrations was added to the corresponding wells and mixed thoroughly. Control wells were set up simultaneously. The final concentration of DMSO was 0.1%. The plate was placed in a 37°C/5% CO2 humidified incubator and incubated for 24 h. Post-incubation, 10 µL supernatant was added to a 384-well plate. 5 µL of Acceptor working solution and 5 µL of Donor Antibody were added to each well, followed by centrifugation at 1000 rpm for 1 minute. The plate was incubated at room temperature for 60-120 minutes. Finally, the fluorescence signal ratio at 665 nm/615 nm was measured using an Envision plate reader (PerkinElmer).
(§2) Experimental data processing method: Test data were processed and analysed using GraphPad Prism 5 software. First, the mean reaction signal values of the high-signal control wells and low-signal control wells were calculated separately. Then, the reaction inhibition rate for each compound well was calculated according to the following formula: Inhibition rate (%) = 100 - (Mean of high-signal control group - Signal value of individual well) / (Mean of high-signal control group - Mean of low-signal control group). Subsequently, the concentration and corresponding inhibition rate data were imported into Prism 5 software. The inhibition rate-concentration curve was fitted using the "log(inhibitor) vs. response - Variable slope" method in the software, and the IC50 value of the compound was calculated.

Chains of the proteins cited; added tags and fusions are not shown. Residues count along the entry.
UniProt P19099, 25-503 limits assumed: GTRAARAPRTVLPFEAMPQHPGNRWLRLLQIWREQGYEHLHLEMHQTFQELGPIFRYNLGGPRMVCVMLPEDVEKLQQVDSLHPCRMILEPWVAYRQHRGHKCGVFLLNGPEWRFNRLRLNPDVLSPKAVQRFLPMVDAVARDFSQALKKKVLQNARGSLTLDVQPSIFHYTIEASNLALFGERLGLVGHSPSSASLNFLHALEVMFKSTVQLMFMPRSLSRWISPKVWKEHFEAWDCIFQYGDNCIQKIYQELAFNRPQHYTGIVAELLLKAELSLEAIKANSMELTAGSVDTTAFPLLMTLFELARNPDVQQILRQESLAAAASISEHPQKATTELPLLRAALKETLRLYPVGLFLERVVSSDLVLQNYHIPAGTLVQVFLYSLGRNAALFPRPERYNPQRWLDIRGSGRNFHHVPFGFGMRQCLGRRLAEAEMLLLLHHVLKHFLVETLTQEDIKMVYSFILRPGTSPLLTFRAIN
UniProt P15538, 25-503 limits assumed: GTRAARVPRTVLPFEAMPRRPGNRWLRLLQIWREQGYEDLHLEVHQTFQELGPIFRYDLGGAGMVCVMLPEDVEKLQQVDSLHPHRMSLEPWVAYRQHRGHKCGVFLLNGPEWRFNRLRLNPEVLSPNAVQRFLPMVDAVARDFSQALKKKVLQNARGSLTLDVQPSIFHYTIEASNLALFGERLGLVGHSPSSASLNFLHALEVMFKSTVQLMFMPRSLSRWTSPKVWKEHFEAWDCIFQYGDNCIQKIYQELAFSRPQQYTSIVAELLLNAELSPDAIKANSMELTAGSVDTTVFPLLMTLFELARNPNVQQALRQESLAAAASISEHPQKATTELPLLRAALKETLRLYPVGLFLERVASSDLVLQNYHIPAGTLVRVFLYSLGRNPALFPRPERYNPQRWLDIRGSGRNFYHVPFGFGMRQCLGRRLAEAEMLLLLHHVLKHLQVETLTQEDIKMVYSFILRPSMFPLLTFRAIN

Assay [2] concerns the target 11β-hydroxylase (CYP11B1) (Homo sapiens, UniProt P15538). The assay is described as follows: Assay of human CYP11B1 inhibition (selectivity CYP11B2/CYP11B1). Conditions: G402-derived stable cell lines overexpressing human CYP11B1 / CYP11B2; CYP11B1: substrate 11-deoxycortisol, cortisol by HTRF. As for the experimental part:
Experimental reagents and instruments: Cortisol kit (Cisbio, Cat#62ALDPEG); Envision plate reader (PerkinElmer)
Experimental principle and method: In humans, 11β-hydroxylase (CYP11B1) is the key enzyme responsible for the biosynthesis of cortisol. In this experiment, a G402-derived stable cell line overexpressing human CYP11B1 was established in vitro. The cells were incubated with using 11-deoxycortisol as the substrate, and the test compound was added simultaneously. After co-incubation, the supernatant was collected, and cortisol levels in the supernatant were then measured by HTRF assay, and the inhibitory effect of the compound on 11β-hydroxylase (CYP11B1) was calculated.
as §1, with “11-Deoxycortisol” for “11-Deoxycorticosterone (11-DOC)”
as §2

The structures given here were assigned with low confidence; some may be wrong. A value given as a limit tells only on which side of the number the result lay.

The molecule `CN1C(=O)CCc2cc(-c3cncc(N4CCN(CC(=O)NC5CC(C)(C)C5)CC4)c3)ccc21` yielded a half-inhibitory concentration (IC50) in assay [1] of less than 3 nM. Besides, the “Ratio of CYP11B1 IC50 to CYP11B2 IC50” value in assay [2] is on record as “A (A > 500)”.

Consider `CN1C(=O)CCc2cc(-c3cncc(N4CCN(CC(=O)NC5CC5)CC4)c3)ccc21`, for which the concentration for half-maximal inhibition (IC50) in assay [1] is less than 3 nM. For the same molecule, in assay [2], the “Ratio of CYP11B1 IC50 to CYP11B2 IC50” value was “B (500 ≥ B > 200)”.

In assay [1], `COC1CC(NC(=O)C(C)(C)N2CCN(c3cncc(-c4ccc5c(c4)CCC(=O)N5C)c3)CC2)C1` (stereo not drawn) returned an IC50 of 10 to 20 nM. Moreover, the “Ratio of CYP11B1 IC50 to CYP11B2 IC50” value in assay [2] was “C (200 ≥ C > 100)”.

Usually IC50 stands for the concentration needed to halve the response being measured.

The values above are taken from patent EP4831167A1, “AROMATIC HETEROCYCLIC COMPOUND, AND PREPARATION METHOD THEREFOR AND USE THEREOF” (dated 2026).
